Assay [1] concerns the target T1, phosphoglycerate dehydrogenase (PHGDH), endogenous in human liver cancer cells (human (endogenous in PLC/PRF/5 and Hep3B)) (UniProt O43175).
T1 sequence: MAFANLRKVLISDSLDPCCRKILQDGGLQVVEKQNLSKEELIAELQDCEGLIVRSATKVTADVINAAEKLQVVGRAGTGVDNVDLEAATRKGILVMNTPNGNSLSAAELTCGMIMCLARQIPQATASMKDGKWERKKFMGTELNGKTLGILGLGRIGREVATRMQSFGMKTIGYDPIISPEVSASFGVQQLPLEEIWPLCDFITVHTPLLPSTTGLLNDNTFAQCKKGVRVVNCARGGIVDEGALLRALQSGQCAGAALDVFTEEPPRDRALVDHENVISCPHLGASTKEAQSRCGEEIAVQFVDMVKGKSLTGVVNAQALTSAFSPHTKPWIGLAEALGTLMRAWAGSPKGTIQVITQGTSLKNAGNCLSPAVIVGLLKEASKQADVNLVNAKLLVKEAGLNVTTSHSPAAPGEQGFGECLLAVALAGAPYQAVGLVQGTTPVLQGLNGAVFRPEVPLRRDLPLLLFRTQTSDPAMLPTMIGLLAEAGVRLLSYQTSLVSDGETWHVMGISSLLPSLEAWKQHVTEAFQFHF
Briefly: co-IP.

By UniProt entry, the sequences of proteins in these tests, tags left out.
UniProt P01106: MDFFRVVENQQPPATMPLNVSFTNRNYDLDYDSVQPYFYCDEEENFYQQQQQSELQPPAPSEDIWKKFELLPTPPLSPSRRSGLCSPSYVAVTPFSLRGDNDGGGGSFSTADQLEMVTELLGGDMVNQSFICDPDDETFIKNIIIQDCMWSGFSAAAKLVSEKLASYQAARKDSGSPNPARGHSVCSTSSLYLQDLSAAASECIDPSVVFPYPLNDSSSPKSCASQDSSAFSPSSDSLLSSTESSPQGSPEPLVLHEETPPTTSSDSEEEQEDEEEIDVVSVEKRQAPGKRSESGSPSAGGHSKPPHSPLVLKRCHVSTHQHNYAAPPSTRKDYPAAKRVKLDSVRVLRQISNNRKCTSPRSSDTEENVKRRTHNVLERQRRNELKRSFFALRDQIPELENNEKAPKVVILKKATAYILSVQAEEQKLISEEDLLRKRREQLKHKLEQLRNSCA
UniProt P01108: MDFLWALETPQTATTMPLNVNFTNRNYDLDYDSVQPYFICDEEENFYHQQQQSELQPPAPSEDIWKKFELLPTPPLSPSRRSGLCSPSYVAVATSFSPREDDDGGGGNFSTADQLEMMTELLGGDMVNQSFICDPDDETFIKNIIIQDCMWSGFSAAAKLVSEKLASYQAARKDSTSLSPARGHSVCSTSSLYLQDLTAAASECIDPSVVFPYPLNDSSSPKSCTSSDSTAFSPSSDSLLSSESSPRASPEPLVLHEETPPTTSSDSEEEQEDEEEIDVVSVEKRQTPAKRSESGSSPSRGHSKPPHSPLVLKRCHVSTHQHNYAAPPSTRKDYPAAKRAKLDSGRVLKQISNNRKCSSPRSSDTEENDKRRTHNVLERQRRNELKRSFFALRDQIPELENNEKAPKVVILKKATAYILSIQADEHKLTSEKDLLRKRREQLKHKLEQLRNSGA

Assay [2] concerns the target T2, phosphoglycerate dehydrogenase (Phgdh), mouse liver (mouse (endogenous in liver)) (UniProt Q61753).
T2 sequence: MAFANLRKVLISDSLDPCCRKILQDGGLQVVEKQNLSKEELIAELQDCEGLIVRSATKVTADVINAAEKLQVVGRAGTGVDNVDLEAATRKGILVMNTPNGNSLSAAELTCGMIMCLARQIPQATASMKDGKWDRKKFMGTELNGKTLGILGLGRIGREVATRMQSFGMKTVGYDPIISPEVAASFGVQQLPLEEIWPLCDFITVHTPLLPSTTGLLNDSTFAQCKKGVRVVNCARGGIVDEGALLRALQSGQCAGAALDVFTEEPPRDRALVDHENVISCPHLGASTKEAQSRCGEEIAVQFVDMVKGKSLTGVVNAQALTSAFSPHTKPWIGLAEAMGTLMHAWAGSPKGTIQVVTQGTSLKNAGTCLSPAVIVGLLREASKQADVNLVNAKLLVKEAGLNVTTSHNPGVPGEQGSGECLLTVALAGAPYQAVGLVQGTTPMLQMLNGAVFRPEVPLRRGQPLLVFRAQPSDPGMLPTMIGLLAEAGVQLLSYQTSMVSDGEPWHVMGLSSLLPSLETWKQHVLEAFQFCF
The assay is described as follows: co-IP.

Drawing on publication doi:10.1101/2021.10.17.464745, this text covers binding for two substances.

These are yes or no findings as the source states them, for the method shown. Binding seen in cells or lysates may run through a third protein. Some binding calls cover weakened binding; strength is not graded here.

Consider “cMyc, endogenous in human liver cancer cells (from UniProt P01106 1-454)”, for which the binding entry in assay [1] is “binds”.
With “cMyc, mouse liver (from UniProt P01108 1-454)”, the binding result in assay [2] is “binds”.
